Reference: paper PMC7462549
Results are given in words; binding and its absence hold for the method and conditions named. In cells and extracts the contact can be indirect. Sequences can lack the tags named with a protein.

Amino acid sequences for entries named in this document (tags omitted). A change or cut given only in a name is not applied to a line headed by its entry.
UniProt P04114: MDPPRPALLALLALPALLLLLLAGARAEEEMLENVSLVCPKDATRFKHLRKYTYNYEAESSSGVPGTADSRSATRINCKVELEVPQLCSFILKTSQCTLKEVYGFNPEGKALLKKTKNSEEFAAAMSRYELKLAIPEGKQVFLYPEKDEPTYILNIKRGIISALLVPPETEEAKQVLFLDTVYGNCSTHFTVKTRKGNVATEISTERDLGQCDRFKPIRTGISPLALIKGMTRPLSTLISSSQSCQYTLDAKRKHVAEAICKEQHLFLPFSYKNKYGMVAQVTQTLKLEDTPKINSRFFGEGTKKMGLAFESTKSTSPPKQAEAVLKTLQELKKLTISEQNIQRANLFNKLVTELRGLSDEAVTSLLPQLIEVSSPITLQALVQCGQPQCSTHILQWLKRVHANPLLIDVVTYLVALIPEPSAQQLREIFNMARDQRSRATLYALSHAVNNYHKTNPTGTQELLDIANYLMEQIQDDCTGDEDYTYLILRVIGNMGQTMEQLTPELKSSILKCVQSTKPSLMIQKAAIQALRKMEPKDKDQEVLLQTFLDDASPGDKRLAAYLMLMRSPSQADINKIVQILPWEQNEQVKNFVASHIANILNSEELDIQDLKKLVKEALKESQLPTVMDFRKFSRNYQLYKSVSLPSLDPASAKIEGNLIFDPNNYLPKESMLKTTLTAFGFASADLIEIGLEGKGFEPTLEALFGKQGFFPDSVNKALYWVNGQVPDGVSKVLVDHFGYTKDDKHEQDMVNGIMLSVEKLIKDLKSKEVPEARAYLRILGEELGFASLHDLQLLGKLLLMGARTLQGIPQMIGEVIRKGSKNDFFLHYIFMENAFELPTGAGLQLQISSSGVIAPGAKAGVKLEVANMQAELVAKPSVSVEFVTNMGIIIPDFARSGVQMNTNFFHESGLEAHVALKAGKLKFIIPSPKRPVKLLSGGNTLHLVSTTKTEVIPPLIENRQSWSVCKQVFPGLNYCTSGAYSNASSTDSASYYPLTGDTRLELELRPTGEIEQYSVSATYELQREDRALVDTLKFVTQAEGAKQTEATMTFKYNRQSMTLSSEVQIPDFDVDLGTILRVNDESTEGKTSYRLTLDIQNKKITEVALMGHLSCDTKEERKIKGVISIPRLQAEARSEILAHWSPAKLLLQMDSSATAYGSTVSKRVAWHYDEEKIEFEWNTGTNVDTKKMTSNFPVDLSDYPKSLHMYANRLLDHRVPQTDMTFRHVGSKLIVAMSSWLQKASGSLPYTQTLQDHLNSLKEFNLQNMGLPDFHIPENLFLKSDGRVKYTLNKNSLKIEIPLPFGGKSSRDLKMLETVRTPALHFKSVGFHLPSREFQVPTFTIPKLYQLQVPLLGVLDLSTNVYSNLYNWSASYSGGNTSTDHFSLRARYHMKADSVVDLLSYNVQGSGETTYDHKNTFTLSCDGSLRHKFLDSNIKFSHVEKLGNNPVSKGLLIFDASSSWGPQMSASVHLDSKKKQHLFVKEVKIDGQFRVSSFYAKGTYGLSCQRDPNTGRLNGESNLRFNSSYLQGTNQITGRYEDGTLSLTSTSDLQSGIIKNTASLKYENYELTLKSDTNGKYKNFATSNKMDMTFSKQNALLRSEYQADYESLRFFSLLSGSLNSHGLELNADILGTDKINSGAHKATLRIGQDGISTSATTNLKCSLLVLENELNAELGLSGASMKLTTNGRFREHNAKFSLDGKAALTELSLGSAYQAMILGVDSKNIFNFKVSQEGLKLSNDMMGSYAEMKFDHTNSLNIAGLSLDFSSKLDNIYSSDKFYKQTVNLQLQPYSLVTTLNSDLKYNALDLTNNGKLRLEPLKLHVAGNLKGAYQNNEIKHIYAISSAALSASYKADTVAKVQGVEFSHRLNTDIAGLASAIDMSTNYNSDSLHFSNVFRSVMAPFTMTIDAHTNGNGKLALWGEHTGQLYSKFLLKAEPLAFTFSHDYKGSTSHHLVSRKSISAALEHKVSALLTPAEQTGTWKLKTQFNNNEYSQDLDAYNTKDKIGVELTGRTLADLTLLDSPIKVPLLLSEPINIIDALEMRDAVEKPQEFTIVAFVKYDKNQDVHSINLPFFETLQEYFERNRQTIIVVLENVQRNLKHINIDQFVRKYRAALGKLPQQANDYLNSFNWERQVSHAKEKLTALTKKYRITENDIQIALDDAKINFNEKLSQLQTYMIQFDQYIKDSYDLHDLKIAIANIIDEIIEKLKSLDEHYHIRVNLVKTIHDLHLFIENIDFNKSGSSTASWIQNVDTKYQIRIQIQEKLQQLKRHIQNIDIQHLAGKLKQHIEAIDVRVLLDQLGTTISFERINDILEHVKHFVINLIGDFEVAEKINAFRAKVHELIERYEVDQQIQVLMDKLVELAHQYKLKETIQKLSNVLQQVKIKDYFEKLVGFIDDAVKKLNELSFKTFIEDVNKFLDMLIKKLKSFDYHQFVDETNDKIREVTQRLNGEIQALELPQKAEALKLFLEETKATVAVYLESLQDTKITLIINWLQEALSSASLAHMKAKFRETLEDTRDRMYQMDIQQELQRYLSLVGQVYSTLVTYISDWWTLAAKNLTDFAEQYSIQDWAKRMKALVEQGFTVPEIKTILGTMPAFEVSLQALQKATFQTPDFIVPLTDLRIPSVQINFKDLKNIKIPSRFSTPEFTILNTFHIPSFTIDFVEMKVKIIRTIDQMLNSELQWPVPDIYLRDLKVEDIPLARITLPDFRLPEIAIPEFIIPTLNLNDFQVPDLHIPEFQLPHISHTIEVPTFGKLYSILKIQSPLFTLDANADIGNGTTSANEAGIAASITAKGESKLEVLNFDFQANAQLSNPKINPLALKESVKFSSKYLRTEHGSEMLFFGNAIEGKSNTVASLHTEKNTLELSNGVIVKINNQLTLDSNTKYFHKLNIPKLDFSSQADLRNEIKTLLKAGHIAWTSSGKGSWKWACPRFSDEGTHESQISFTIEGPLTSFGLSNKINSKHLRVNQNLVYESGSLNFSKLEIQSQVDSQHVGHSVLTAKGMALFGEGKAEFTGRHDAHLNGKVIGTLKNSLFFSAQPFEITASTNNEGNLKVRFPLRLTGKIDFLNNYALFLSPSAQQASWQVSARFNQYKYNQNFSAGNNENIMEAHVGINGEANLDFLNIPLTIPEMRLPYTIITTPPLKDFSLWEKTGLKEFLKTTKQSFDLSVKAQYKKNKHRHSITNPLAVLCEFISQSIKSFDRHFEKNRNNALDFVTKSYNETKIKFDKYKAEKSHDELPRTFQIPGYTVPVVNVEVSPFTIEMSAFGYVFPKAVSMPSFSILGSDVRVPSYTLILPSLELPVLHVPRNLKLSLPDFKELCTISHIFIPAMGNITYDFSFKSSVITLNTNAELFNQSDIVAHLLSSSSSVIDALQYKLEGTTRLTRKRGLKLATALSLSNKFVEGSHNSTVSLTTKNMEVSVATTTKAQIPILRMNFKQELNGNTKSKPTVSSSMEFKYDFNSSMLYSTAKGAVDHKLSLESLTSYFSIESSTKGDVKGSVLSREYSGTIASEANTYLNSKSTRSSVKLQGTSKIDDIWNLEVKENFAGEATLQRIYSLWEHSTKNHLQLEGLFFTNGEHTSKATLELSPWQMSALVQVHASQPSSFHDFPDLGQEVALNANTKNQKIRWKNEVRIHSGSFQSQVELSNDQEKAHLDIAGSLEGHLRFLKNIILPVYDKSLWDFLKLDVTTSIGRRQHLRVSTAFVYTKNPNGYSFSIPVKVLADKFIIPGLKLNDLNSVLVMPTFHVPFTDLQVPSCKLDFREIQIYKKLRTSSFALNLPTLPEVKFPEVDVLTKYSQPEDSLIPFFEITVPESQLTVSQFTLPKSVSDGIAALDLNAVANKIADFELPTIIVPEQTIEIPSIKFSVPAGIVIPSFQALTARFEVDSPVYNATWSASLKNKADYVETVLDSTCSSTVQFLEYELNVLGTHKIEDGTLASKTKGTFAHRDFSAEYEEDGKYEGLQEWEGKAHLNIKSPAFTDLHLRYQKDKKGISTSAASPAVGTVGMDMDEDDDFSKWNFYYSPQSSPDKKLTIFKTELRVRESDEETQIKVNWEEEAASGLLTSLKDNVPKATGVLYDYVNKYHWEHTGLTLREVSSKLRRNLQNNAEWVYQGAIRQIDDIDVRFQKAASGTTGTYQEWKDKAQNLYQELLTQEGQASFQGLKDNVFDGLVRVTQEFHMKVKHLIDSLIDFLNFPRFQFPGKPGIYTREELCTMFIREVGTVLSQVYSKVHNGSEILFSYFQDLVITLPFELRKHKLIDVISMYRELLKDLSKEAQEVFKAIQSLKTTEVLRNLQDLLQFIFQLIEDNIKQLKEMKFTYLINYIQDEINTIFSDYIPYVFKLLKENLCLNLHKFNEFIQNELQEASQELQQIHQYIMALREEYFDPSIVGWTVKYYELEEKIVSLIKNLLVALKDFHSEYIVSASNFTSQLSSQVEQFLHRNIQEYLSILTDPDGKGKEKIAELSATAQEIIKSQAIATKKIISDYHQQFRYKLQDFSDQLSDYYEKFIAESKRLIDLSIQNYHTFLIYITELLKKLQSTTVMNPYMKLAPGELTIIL

Target: FLAG-tagged APOB48 (UniProt P04114)
Experiment: co-IP; Huh7 cells co-transfected, harvested after 48 h; lysates in PBS, 0.1% NP-40 incubated with anti-FLAG or anti-MYC beads at 4°C for 2 h; immunoblotting

binding | Binder
no binding | Myc-tagged ERLIN2 (protein, UniProt O94905 1-339) MAQLGAVVAVASSFFCASLFSAVHKIEEGHIGVYYRGGALLTSTSGPGFHLMLPFITSYKSVQTTLQTDEVKNVPCGTSGGVMIYFDRIEVVNFLVPNAVYDIVKNYTADYDKALIFNKIHHELNQFCSVHTLQEVYIELFDQIDENLKLALQQDLTSMAPGLVIQAVRVTKPNIPEAIRRNYELMESEKTKLLIAAQKQKVVEKEAETERKKALIEAEKVAQVAEITYGQKVMEKETEKKISEIEDAAFLAREKAKADAECYTAMKIAEANKLKLTPEYLQLMKYKAIASNSKIYFGKDIPNMFMDSAGSVSKQFEGLADKLSFGLEDEPLETATKEN
no binding | Myc-tagged ERLIN1 (protein, UniProt O75477 1-348) MNMTQARVLVAAVVGLVAVLLYASIHKIEEGHLAVYYRGGALLTSPSGPGYHIMLPFITTFRSVQTTLQTDEVKNVPCGTSGGVMIYIDRIEVVNMLAPYAVFDIVRNYTADYDKTLIFNKIHHELNQFCSAHTLQEVYIELFDQIDENLKQALQKDLNLMAPGLTIQAVRVTKPKIPEAIRRNFELMEAEKTKLLIAAQKQKVVEKEAETERKKAVIEAEKIAQVAKIRFQQKVMEKETEKRISEIEDAAFLAREKAKADAEYYAAHKYATSNKHKLTPEYLELKKYQAIASNSKIYFGSNIPNMFVDSSCALKYSDIRTGRESSLPSKEALEPSGENVIQNKESTG
